Assay results published in patent US20250019446A1.
Results are given in words; binding and its absence hold for the method and conditions named. Some entries that bind do so weakly or less than the wild type.

By UniProt entry, the sequences of proteins in these tests, tags left out. Residues count along the entry.
UniProt P30530, residues 26-894: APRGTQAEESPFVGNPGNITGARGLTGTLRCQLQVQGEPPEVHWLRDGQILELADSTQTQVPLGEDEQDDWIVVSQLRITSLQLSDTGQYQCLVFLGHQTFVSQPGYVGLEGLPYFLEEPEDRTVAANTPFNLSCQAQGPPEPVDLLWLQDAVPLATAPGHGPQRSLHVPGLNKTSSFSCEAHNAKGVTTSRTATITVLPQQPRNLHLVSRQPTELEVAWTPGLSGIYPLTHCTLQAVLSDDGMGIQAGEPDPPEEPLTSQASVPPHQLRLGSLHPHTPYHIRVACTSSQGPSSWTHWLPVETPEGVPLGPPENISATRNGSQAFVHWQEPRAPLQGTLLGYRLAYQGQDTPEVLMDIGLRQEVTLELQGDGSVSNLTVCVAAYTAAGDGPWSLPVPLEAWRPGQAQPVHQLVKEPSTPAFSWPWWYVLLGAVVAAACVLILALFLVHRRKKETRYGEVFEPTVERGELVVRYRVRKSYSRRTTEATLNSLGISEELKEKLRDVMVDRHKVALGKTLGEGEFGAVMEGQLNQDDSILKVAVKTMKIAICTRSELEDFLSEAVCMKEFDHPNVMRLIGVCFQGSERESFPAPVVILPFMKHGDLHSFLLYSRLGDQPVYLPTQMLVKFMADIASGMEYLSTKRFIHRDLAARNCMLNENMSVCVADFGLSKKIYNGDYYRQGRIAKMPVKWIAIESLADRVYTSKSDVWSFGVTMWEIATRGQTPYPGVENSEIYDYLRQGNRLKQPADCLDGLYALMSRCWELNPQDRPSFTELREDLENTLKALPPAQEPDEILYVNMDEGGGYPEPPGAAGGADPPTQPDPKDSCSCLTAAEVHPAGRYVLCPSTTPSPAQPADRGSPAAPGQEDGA

Assays:
[1] = target: AXL on CHO-AXL cells (human) (UniProt P30530); test: flow cytometry on CHO-AXL cells at pH 6.0 and pH 7.4 (curves not assigned to a pH), IgG-Fc-PE secondary antibody, mean fluorescence intensity
[2] = target: AXL on CHO-AXL cells (human) (UniProt P30530); test: flow cytometry on CHO-AXL cells, pH 6.0 and pH 7.4
[3] = target: AXL on CHO-AXL cells (human) (UniProt P30530); test: flow cytometry (legend of FIG. 3)

Measured: binding

B1: Hu001-14 antibody (full-length human IgG1, kappa) (antibody, V domains shown)
VH: EVQLVQSGAEVKKPGASVKVSCKASGYTFTSYYMHWVRQAPGQGLEWMGIINPSGGSTSYAQKFQGRVTMTRDTSTSTVYMELSSLRSEDSAVYYCARDWYFDVWGAGTTVTVSA
VL: NIQMTQSPSSVSASVGDRVTITCRASQGISSWLAWYQQKPGKAPKLLIYAASSLQSGVPSRFSGSGSGTDFTLTISSLQPEDFATYYCQQANSFPFTFGGGTKVEIK
binds: all assays above
